PubChem BioAssay AID493014 (National Center for Advancing Translational Sciences (NCATS), 2011)
The list shows a part of the results. The main result of the screen is listed elsewhere. These columns were measured beside it and carry no call. The list favours compounds with an active or inconclusive main result. The note in brackets gives the kind of curve behind each potency; many fits are weak.

Assay: qHTS Assay to Find Inhibitors of Chronic Active B-Cell Receptor Signaling
Details: ABC-DLBCL IkBa-CBG/CBR reporter, luminescence ratio (green luciferase fused to IkBa over red control in TMD8 lymphoma cells), 4 h
How it was run: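 Compounds up to 46 uM were incubated four hours with TMD8 cells whose green CBG68 luciferase is fused to IkappaBalpha; red CBR luminescence normalised the signal, and concentration-effect curves were fitted to fusion, red and ratio data.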

[1] = measured here: CBR red luminescence, cell number
[2] = measured here: IkBa-CBG green luminescence

| SMILES | AC50 [1] | AC50 [2] |
| --- | --- | --- |
| Nc1ncnc2c1ncn2[C@@H]1O[C@H](CNS(=O)(=O)c2ccc(-c3ccno3)s2)[C@@H](O)[C@H]1O | 16.4 µM [rising, partial curve, poor fit] |  |
| COc1cc(C(=O)OCCC(C)C)cc(OC)c1O | 0.794 µM [rising, full curve, poor fit] |  |
| Cc1[nH]c(=O)c(C(=O)/C=C/c2ccccc2)c2c1CCCC2 | 7.31 µM [falling, partial curve] |  |
| Cn1c(SCCOc2ccccc2Cl)nnc1-c1cccs1 | 32.6 µM [falling, single point] |  |
| Cn1cncc1C#Cc1c(C=O)[nH]c2ccccc12 | 10.3 µM [falling, partial curve] |  |
| O=C(CNC(=O)c1sc2ccccc2c1Cl)Nc1ccccc1F | 9.2 µM [falling, partial curve] |  |
| CSc1nc2nc(-c3ccccc3)cc(=O)n2[nH]1 | 4.11 µM [falling, partial curve] |  |
| CC(=O)c1ccc(N2C(=O)N(Cc3cccc(C(F)(F)F)c3)c3ccccc3S2(=O)=O)cc1 | 28.2 µM [falling, single point] |  |
| CC(C)(C)NC(=O)NC(=O)CSc1nnc(-c2ccccc2F)n1N | 29.1 µM [rising, single point] |  |
| CS(=O)(=O)N1CCN(C(=O)c2ccncc2)CC1 | 3.16 µM [rising, partial curve, poor fit] |  |
| COc1ccccc1NS(=O)(=O)c1cccc(NC(=O)Nc2ccccc2)c1 | 13 µM [falling, partial curve] | 23.1 µM [rising, partial curve, poor fit] |
| O=C(Cn1nc(-c2ccccc2)ccc1=O)NCc1ccc(F)cc1Cl | 2.82 µM [falling, single point] |  |
| COc1ccccc1Nc1nn2c(=O)c3ccc(C(=O)N4CCC(C)CC4)cc3nc2s1 | 15.8 µM [falling, partial curve, poor fit] |  |
| Cn1nnnc1SCC(=O)N1CCN(c2ccc(Cl)cc2)CC1 | 6.51 µM [rising, single point] |  |
| CCOC(=O)c1[nH]c(C)c(C(=O)OCC)c1C | 1.64 µM [rising, full curve, poor fit] | 14.6 µM [falling, partial curve] |
| CCOC(=O)c1ccccc1NC(=O)N[C@@H](C)C(=O)OC | 23.1 µM [falling, single point] |  |
| CCN(Cc1ccncc1)C(=O)c1cc(COc2ccc(C)c(C)c2)on1 | 17.8 µM [falling, single point] |  |
| CCc1ccc(C(=O)CSc2nnc(C3CC3)n2C2CC2)cc1 | 4.11 µM [rising, full curve] |  |
| COCc1c(C(=O)OCc2c(C)noc2C)oc2ccccc12 | 0.282 µM [falling, full curve, poor fit] |  |
| CCCCOC(=O)Nc1nnc(SCCOc2ccc(C)cc2)s1 | 4.61 µM [rising, single point] |  |

No new results follow: entries from further up.

| SMILES | AC50 [1] | AC50 [2] |
| --- | --- | --- |
| CCc1ccc(C(=O)CSc2nnc(C3CC3)n2C2CC2)cc1 | 4.11 µM [rising, full curve] |  |
| COCc1c(C(=O)OCc2c(C)noc2C)oc2ccccc12 | 0.282 µM [falling, full curve, poor fit] |  |
| CCCCOC(=O)Nc1nnc(SCCOc2ccc(C)cc2)s1 | 4.61 µM [rising, single point] |  |

The list goes on:

| SMILES | AC50 [1] | AC50 [2] |
| --- | --- | --- |
| Cc1cc(OCc2ccc(C(=O)n3cccn3)o2)ccc1Cl | 10.3 µM [falling, partial curve] |  |
| C=CCOc1cccc(C2/C(=C(/O)c3ccc(C)cc3)C(=O)C(=O)N2CCN2CCOCC2)c1 (centres undefined) | 11.2 µM [falling, partial curve, poor fit] |  |
| Cc1cccc(C(=O)Nc2c3c(nn2-c2ccc(Cl)cc2)CS(=O)(=O)C3)c1 |  | 35.5 µM [rising, partial curve, poor fit] |
| CCN(C(=O)COC(=O)c1c(C)noc1C)C1CCS(=O)(=O)C1 (centres undefined) | 10 µM [falling, partial curve] |  |
| CCOC(=O)C1CCN(C(=O)Nc2ccc3nc(-c4ccco4)c(-c4ccco4)nc3c2)CC1 | 16.4 µM [falling, partial curve] |  |
| O=C(/C=N/NC(=O)c1ccccc1Br)c1ccccc1 | 12.6 µM [falling, partial curve] | 35.5 µM [falling, single point] |
| O=C(COC(=O)c1ccc(Br)o1)Nc1ncc([N+](=O)[O-])s1 | 2.59 µM [rising, partial curve, poor fit] |  |
| CCCCC(=O)Nc1ccc(NC(=O)c2ccccc2[N+](=O)[O-])cc1OC | 0.651 µM [rising, full curve, poor fit] |  |
| COc1ccc(C2C(C(=O)Nc3ccccc3OC)=C(C)Nc3ncnn32)cc1 (centres undefined) | 32.6 µM [falling, single point] |  |
| O=C(Nc1nc2ccccc2s1)C1c2ccccc2Oc2ccccc21 | 20.6 µM [falling, single point] | 16.4 µM [rising, single point] |
| O=C(NCc1ccc(F)cc1)C1CCCN(S(=O)(=O)c2ccc(Br)s2)C1 (centres undefined) | 10 µM [falling, partial curve, poor fit] |  |
| COc1cc(Cl)c(C)cc1NC(=O)Cc1ccc(OC)c(OC)c1 | 35.5 µM [falling, single point] |  |
| O=C(CN(c1cccc(C(F)(F)F)c1)S(=O)(=O)c1ccc(Cl)c([N+](=O)[O-])c1)NCc1ccccc1 | 29.1 µM [falling, single point] |  |
| Nc1c(C(=O)N2CCCCC2)sc(=S)n1-c1ccccc1 | 20.6 µM [falling, partial curve, poor fit] |  |
| CCN(CC)c1ccc(-c2nn3c(-c4n[nH]c5c4CCC5)nnc3s2)cc1 | 7.94 µM [rising, partial curve] | 8.91 µM [falling, partial curve] |
| COc1ccc(C(=O)CSc2nccn2C)cc1 | 35.5 µM [falling, single point] |  |
| C=CCOc1ccc(C(=O)c2ccccc2)c(OCC(=O)NC2(C#N)CCCC2)c1 | 8.91 µM [falling, partial curve, poor fit] |  |
| CC(Sc1ccc2ccccc2n1)C(=O)O (centres undefined) | 0.447 µM [falling, partial curve, poor fit] |  |
| Cc1cc(C(=O)COc2cc(F)ccc2[N+](=O)[O-])c(C)n1CC1CCCO1 (centres undefined) | 23.1 µM [falling, single point] |  |
